No constants are given. Whether binding was seen depends on the method and setting. Some binding calls cover weakened binding; strength is not graded here.
B1: anti-BCMA antibody AB3 (antibody, V domains shown)
VH: QVQLVESGGGVVQPGRSLRLSCAASGFTVSSYGMHWVRQAPGKGLEWVAVISYTGSNKYYADSVKGRFTISRDNSKNTLYLQMNSLRAEDTAVYYCGGSGYALHDDYYGLDVWGQGTLVTVSS
VL: QSALTQPASVSGSPGQSITISCTGTSSDVGGYNYVSWYQQHPGKAPKLMIYDVSNRLRGVSNRFSGSKSGNTASLTISGLQAEDEADYYCSSYTSSSALYVFGSGTKVTVL
B2: anti-BCMA antibody H3-4 (antibody, V domains shown)
VH: QVQLQGSGGGVVQPGRSLRLSCAASGFTFSSYGMHWVRQAPGKGLEWVAVISYDDAHKYYADSVKGRFTISRDNSKNTLYLQMNSLRAEDTAVYYCGGSGYALHDQYKPVDVWGQGTLVTVSS
VL: QSALTQPASVSGSPGQSITISCTGTSSDVGGYNYVSWYQQHPGKAPKLMIYEVSNRLRGVSNRFSGSKFGNTASLTISGLQAEDEADYYCSSYTSSSALYVFGSGTKVTVL
B3: anti-BCMA antibody H2/L2-18 (antibody, V domains shown)
VH: QAQLQGSGGGVVQPGRSLRLSCAASGFTFSSYGMHWVRQAPGKGLEWVAVISYKGSHKYYADSVKGRFTISRDNSKNTLYLQMNSLRAEDTAVYYCGGSGYALHDDYYGLDVWGQGTLVTVSS
VL: QSALTQPASVSGSPGQSITISCTGTSSDVGGYNYVSWYQQHPGKAPKLMIYDVSNRPWGVSNRFSGSKFGNTASLTISGLQAEDEADYYCSSYTSSSTLYVFGSGTKVTVL
B4: anti-BCMA antibody H2/L2-36 (antibody, V domains shown)
VH: QAQLQSSGGGVVQPGRSLRLSCAASGFTFSSYGMHWVRQAPGKGLEWVAVISYKGSNKYYADSVKGRFTISRDNSKNTLYLQMNSLRAEDTAVYYCGGSGYALHDDYYGLDVWGQGTLVTVSS
VL: QSALTQPASVSGSPGQSITISCTGTSSDVGGYNYVSWYQQHPGKAPKLMIYEVSNRLRGVSNRFSGSKFGNTASLTISGLQAEDEADYYCSSYTSSSTLYVFGSGTKVTVL
B5: anti-BCMA antibody H2/L2-22 (antibody, V domains shown)
VH: QAQLQSSEGGVVQPGRSLRLSCAASGFTFSSYGMHWVRQAPGKGLEWVAVISYHGSNKYYADSVKGRFTISRDNSKNTLYLQMNSLRAEDTAVYYCGGSGYALHDDYYGLDVWGQGTLVTVSS
VL: QSALTQPASVSGSPGQSITISCTGTSSDVGGYNYVSWYQQHPGKAPKLMIYEVSNRLSGVSNRFSGSKFGNTASLTISGLQAEDEADYYCSSYTSSSTLYVFGSGTKVTVL
B6: anti-BCMA antibody H3-11 (antibody, V domains shown)
VH: QVQLQSSEGGVVQPGRSLRLSCAASGFTFSSYGMHWVRQAPGKGLEWVAVISYNDANKYYADSVKGRFTISRDNSKNTLYLQMNSLRAEDTAVYYCGGSGYELRDDYYGLDVWGQGTLVTVSS
VL: QSALTQPASVSGSPGQSITISCTGTSSDVGGYNYVSWYQQHPGKAPKLMIYEVSNRLRGVSNRFSGSKFGNTASLTISGLQAEDEADYYCSSYTSSSTLYVFGSGTKVTVL
B7: anti-BCMA antibody H3-6 (antibody, V domains shown)
VH: QAQLQRSGGGVVQPGRSLRLSCAASGFTFSSYGMHWVRQAPGKGLEWVAVISYDDAHKYYADSVKGRFTISRDNSKNTLYLQMNSLRAEDTAVYYCGGSGYALHDQYKPVDVWGQGTLVTVSS
VL: QSALTQPASVSGSPGQSITISCTGTSSDVGGYNYVSWYQQHPGKAPKLMIYEVSNRLRGVSNRFSGSKFGNTASLTISGLQAEDEADYYCSSYTSSSALYVFGSGTKVTVL
B8: anti-BCMA antibody H3-2 (antibody, V domains shown)
VH: QAQLQESEGGVVQPGGSLRLSCAASGFTFSSYGMHWVRQAPGKGLEWVAVISYNDLNKYYADSVKGRFTISRDNSKNTLYLQMNSLRAEDTAVYYCGGSGYALHDFQDPTDVWGQGTLVTVSS
VL: QSALTQPASVSGSPGQSITISCTGTSSDVGGYNYVSWYQQHPGKAPKLMIYEVSNRLRGVSNRFSGSKFGNTASLTISGLQAEDEADYYCSSYTSSSTLYVFGSGTKVTVL
B9: anti-BCMA antibody H2/L2-83 (antibody, V domains shown)
VH: QAQLQGSGGGVVQPGRSLRLSCAASGFTFSSYGMHWVRQAPGKGLEWVAVISYKGSNKYYADSVKGRFTISRDNSKNTLYLQMNSLRAEDTAVYYCGGSGYALHDDYYGLDVWGQGTLVTVSS
VL: QSALTQPASVSGSPGQSITISCTGTSSDVGGYNYVSWYQQHPGKAPKLMIYEVSNRLRGVSNRFSGSKFGNTASLTISGLQAEDEADYYCSSYTSSSTLYVFGSGTKVTVL
B10: anti-BCMA antibody H3-3 (antibody, V domains shown)
VH: QVQLQSSGGGVVQPGRSLRLSCAASGFTVSSYGMHWVRQAPGKGLEWVAVISYSGSNKYYADSVKGRFTISRDNSKNTLYLQMNSLRAEDTAVYYCGGSGYALHDQYKPVDVWGQGTLVTVSS
VL: QSALTQPASVSGSPGQSITISCTGTSSDVGGYNYVSWYQQHPGKAPKLMIYEVSNRLRGVSNRFSGSKFGNTASLTISGLQAEDEADYYCSSYTSSSTLYVFGSGTKVTVL
B11: anti-BCMA antibody H3-9 (antibody, V domains shown)
VH: QVQLQGSGGGVVQPGRSLRLSCAASGFTFSSYGMHWVRQAPGKGLEWVAVISYDDAHKYYADSVKGRFTISRDNSKNTLYLQMNSLRAEDTAVYYCGGSGYALHDQYKPVDVWGQGTLVTVSS
VL: QSALTQPASVSGSPGQSITISCTGTSSDVGGYNYVSWYQQHPGKAPKLMIYEVSNRLRGVSNRFSGSKFGNTASLTISGLQAEDEAYYYCSSYTSSSTLYVFGSGTKVTVL
B12: anti-BCMA antibody H2/L2-20 (antibody, V domains shown)
VH: QAQLQSSGGGVVQPGRSLRLSCAASGFTVSSYGMHWVRQAPGKGLEWVAVISYTGSNKYYADSVKGRFTISRDNSKNTLYLQMNSLRAEDTAVYYCGGSGYALHDDYYGLDVWGQGTLVTVSS
VL: QSALTQPASVSGSPGQSITISCTGTSSDVGGYNYVSWYQQHPGKAPKLMIYDVSNRLRGVSNRFSGSKFGNTASLTISGLQAEDEADYYCSSYTSSSALYVFGSGTKVTVL
B13: anti-BCMA antibody H3-5 (antibody, V domains shown)
VH: QVQLQGSGGGVVQPGRSLRLSCAASGFTFSSYGMHWVRQAPGKGLEWVAVISYTGANKYYADSVKGRFTISRDNSKNTLYLQMNSLRAEDTAVYYCGGSGYNLHDDYYGLDVWGQGTLVTVSS
VL: QSALTQPASVSGSPGQSITISCTGTSSDVGGYNYVSWYQQHPGKAPKLMIYEVSNRLSGVSNRFSGSKFGNTASLTISGLQAEDEADYYCSSYTSSSTLYVFGSGTKVTVL
B14: anti-BCMA antibody H2/L2-68 (antibody, V domains shown)
VH: QAQLQSSEGGVVQPGRSLRLSCAASGFTFSSYGMHWVRQAPGKGLEWVAVISYRGFNKYYADSVKGRFTISRDNSKNTLYLQMNSLRAEDTAVYYCGGSGYALHDDYYGQDVWGQGTLVTVSS
VL: QSALTQPASVSGSPGQSITISCTGTSSDVGGYNYVSWYQQHPGKAPKLMIYDVSNRLSGVSNRFSGSKFGNTASLTISGLQAEDEADYYCSSYTSSSTLYVFGSGTKVTVL
B15: anti-BCMA antibody H3-8 (antibody, V domains shown)
VH: QAQLQGSEGGVVQPGRSLRLSCAASGFTFSSYGMHWVRQAPGKGLEWVAVISYDDAHKYYADSVKGRFTISRDNSKNTLYLQMNSLRAEDTAVYYCGGSGYALHDQYKPVDVWGQGTLVTVSS
VL: QSALTQPASVSGSPGQSITISCTGTSSDVGGYNYVSWYQQHPGKAPKLMIYEVSNRLRGVSNRFSGSKFGNTASLTISGLQAEDEADYYCSSYTSSSTLYVFGSGTKVTVL
B16: anti-BCMA antibody H3-10 (antibody, V domains shown)
VH: QVQLQSSGGGVVQPGRSLRLSCAASGFTFSSYGMHWVRQAPGKGLEWVAVISYNDLNKYYADSVKGRFTISRDNSKNTLYLQMNSLRAEDTAVYYCGGSGYEFQGDYYGLDVWGQGTLVTVSS
VL: QSALTQPASVSGSPGQSITISCTGTSSDVGGYNYVSWYQQHPGKAPKLMIYEVSNRLRGVSNRFSGSKFGNTASLTISGLQAEDEADYYCSSYTSSSTLYVFGSGTKVTVL
B17: anti-BCMA antibody H2/L2-88 (antibody, V domains shown)
VH: QVQLQSSEGGVVQPGRSLRLSCAASGFTFSSYGMHWVRQAPGKGLEWVAVISYKGSNKYYADSVKGRFTISRDNSKNTLYLQMNSLRAEDTAVYYCGGSGYALHDDYYGLDVWGQGTLVTVSS
VL: QSALTQPASVSGSPGQSITISCTGTSSDVGGYNYVSWYQQHPGKAPKLMIYEVSNRLRGVSNRFSGSKFGNTASLTISGLQAEDEADYYCSSYTSSSALYVFGSGTKVTVL
B18: anti-BCMA antibody H2/L2-80 (antibody, V domains shown)
VH: QVQLQSSGGGVVQPGRSLRLSCAASGFTFSSYGMHWVRQAPGKGLEWVAVISYTGSNKYYADSVKGRFTISRDNSKNTLYLQMNSLRAEDTAVYYCGGSGYALHDDYYGLDVWGQGTLVTVSS
VL: QSALTQPASVSGSPGQSITISCTGTSSDVGGYNYVSWYQQHPGKAPKLMIYDVSNRAWGVSNRFSGSKFGNTASLTISGLQAEDEADYYCSSYTSSSALYVFGSGTKVTVL
B19: anti-BCMA antibody H2/L2-47 (antibody, V domains shown)
VH: QVQLQSSEGGVVQPGRSLRLSCAASGFTFSSYGMHWVRQAPGKGLEWVAVISYKGSNKYYADSVKGRFTISRDNSKNTLYLQMNSLRAEDTAVYYCGGSGYALHDDYYGLDVWGQGTLVTVSS
VL: QSALTQPASVSGSPGQSITISCTGTSSDVGGYNYVSWYQQHPGKAPKLMIYDVSNRPWGVSNRFSGSKFGNTASLTISGLQAEDEADYYCSSYTSSSTLYVFGSGTKVTVL
B20: anti-BCMA antibody H3-1 (antibody, V domains shown)
VH: QVQLQGSGGGVVQPGRSLRLSCAASGFTFSSYGMHWVRQAPGKGLEWVAVISYDDAHKYYADSVKGRFTISRDNSKNTLYLQMNSLRAEDTAVYYCGGSGYALHDQYKPVDVWGQGTLVTVSS
VL: QSALTQPASVSGSPGQSITISCTGTSSDVGGYNYVSWYQQHPGKAPKLMIYEVSNRLRGVSNRFSGSKFGNTASLTISGLQAEDEADYYCSSYTSSSTLYVFGSGTKVTVL
B21: anti-BCMA antibody H3-7 (antibody, V domains shown)
VH: QVQLQSSEGGVVQPGRSLRLSCAASGFTLSSYGMHWVRQAPGKGLEWVAVISYTGSNKYYADSVKGRFTISRDNSKNTLYLQMNSLRAEDTAVYYCGGSGYEFHEDYYGLDVWGQGTLVTVSS
VL: QSALTQPASVSGSPGQSITISCTGTSSDVGGYNYVSWYQQHPGKAPKLMIYEVSNRLRGVSNRFSGSKFGNTASLTISGLQAEDEADYYCSSYTSSSTLYVFGSGTKVTVL

Sequences of proteins named here, by UniProt entry; tags and fusion partners are left off. Residues count along the entry.
UniProt Q02223, residues 1-54: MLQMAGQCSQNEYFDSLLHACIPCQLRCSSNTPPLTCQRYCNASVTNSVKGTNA

These binders were tested against BCMA (species not stated) (UniProt Q02223) (assay: affinity maturation of PI-61; assay not described).

binding, binds:
B1
B2
B3
B4
B5
B6
B7
B8
B9
B10
B11
B12
B13
B14
B15
B16
B17
B18
B19
B20
B21
